{
  "sequences": {"note": "The chains behind the UniProt entries cited, without tags or fusion partners.", "UniProt P18054, whole entry, looked up": "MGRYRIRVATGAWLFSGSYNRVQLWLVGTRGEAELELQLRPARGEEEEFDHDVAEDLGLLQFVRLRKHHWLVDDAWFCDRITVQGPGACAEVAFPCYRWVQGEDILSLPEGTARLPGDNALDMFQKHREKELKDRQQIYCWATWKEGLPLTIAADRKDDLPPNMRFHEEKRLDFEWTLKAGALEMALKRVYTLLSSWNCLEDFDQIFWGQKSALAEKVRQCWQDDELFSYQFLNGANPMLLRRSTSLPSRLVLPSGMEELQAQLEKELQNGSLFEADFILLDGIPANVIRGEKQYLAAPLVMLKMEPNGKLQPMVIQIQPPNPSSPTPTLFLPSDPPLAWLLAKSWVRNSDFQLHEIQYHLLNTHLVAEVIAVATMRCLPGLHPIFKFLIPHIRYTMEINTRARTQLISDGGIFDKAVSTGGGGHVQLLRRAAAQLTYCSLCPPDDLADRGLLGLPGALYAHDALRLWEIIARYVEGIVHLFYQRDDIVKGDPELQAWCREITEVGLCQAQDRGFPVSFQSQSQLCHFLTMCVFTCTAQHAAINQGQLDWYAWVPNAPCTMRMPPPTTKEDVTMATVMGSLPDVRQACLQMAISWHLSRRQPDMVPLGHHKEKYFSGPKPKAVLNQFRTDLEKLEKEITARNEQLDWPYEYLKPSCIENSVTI"},
  "source": "PubChem BioAssay AID1671190",
  "about": "(National Center for Advancing Translational Sciences (NCATS), 2021)",
  "note": "Values joined by “and” are separate entries in the source; they are usually repeats but may differ in a detail not shown here. Identical values can stand only once. Hit rate of the full screen: of about 580,000 compounds, about 6,100 (1.1%) were called active. The inconclusive results got no clear call from the source; some entries with a clear call stand among them for comparison. The call rests on the fitted dose curve; in most records, active means well fitted inhibition curve with a large enough effect; inconclusive means small, poorly fitted or top-dose-only effect, or another doubt; inactive means no such curve, though single readings can be large or run the other way. Potencies of inconclusive entries are doubtful fits and often do not repeat. On the % scale 0 is the no-effect control and ±100 the full control effect; potency means the concentration at half of the fitted maximal effect.",
  "data": [
    {"target": "Polyunsaturated fatty acid lipoxygenase ALOX12 (Homo sapiens) (UniProt P18054)", "experiment": "Primary qHTS assay for inhibitors of human arachidonate 12S-lipoxygenase (ALOX12): Round 2", "conditions": "purified 12hLO, xylenol orange hydroperoxide absorbance; activity change, negative = inhibition: at 108 µM (top of the series) unless noted", "how_it_was_run": "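Purified human 12hLO (150 nM final) in 25 mM Hepes, 0.01% Triton X-100, pH 7.0 was preincubated 15 min at room temperature with compound. Then 40 uM arachidonic acid was added, 30 min. Hydroperoxide was read by Fe-XO absorbance ratio 573/405 nm.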", "values": [
      {"smiles": "N#Cc1c2n(c3c(=O)n(Cc4ccccc4Cl)cnc13)CCCC2", "Potency": "inconclusive: 112 µM [inhibitor, single point]"},
      {"smiles": "C[C@@H]1CN([C@@H](C)CO)C(=O)c2cc(C#CCN(C)C)cnc2O[C@H]1CN(C)Cc1ccc2c(c1)OCO2", "Potency": "inactive"},
      {"smiles": "Cc1cccc(/C=N/NC(=O)c2cc(-c3cccnc3)nc3c2c(C)nn3-c2ccccc2)c1", "Potency": "inactive"},
      {"smiles": "Cc1cc(C(=O)COC(=O)CN(C)S(=O)(=O)c2ccc(Cl)cc2)c(C)n1CC1CCCO1", "note": "(centres undefined)", "Potency": "inconclusive: 100 µM [inhibitor, single point]"},
      {"smiles": "NC(=O)c1cccc(OCc2ccccc2)c1", "Potency": "inactive"},
      {"smiles": "CC1(C)Cc2c(ccc3ccccc23)C2=C(C(=O)N3CCCC3)C(=O)C(=O)N21", "Potency": "inconclusive: 35.5 µM [inhibitor, partial curve, poor fit]"},
      {"smiles": "Cc1ccc(SCC(=O)c2ccc(Cl)cc2)cc1", "Potency": "inconclusive: 89.1 µM [inhibitor, single point]"},
      {"smiles": "Cc1cc(F)ccc1NC(=O)c1nc2ccccc2nc1N1CCOCC1", "Potency": "inactive"},
      {"smiles": "OCCOCCn1c(C(CO)Nc2nc(-c3cccc(Br)c3)cs2)nc2ccccc21", "note": "(centres undefined)", "Potency": "inactive"},
      {"smiles": "COc1cc(/C=N\\Nc2cc(=O)n(C)c(=O)n2C)ccc1O", "Potency": "inactive"},
      {"smiles": "COC(=O)[C@]12CCCCC=C1N(CCc1ccc(OC)c(OC)c1)C(=O)[C@H](CC(=O)N1CCCCC1)C2", "Potency": "inactive"},
      {"smiles": "COc1ccc2oc(=O)c(-c3nc(-c4cccs4)no3)cc2c1", "Potency": "inconclusive: 79.4 µM [inhibitor, partial curve, poor fit]"},
      {"smiles": "O=C1c2ccccc2S(=O)(=O)N1Cc1nc(-c2ccc(F)cc2)cs1", "Potency": "inconclusive: 14.1 µM [inhibitor, partial curve]"},
      {"smiles": "CC(C)CCN1CCC(N2CCN(S(=O)(=O)c3ccc(Cl)cc3)CC2)C1=O", "note": "(centres undefined)", "Potency": "inconclusive: 70.8 µM [inhibitor, partial curve]"},
      {"smiles": "CCOc1ccc(NC(=O)CC(C)C)c2cccnc12", "Potency": "inconclusive: 100 µM [inhibitor, single point]"},
      {"smiles": "CC(=O)c1cccc(NC(=O)c2ccc3c(=O)n(-c4ccccc4F)cnc3c2)c1", "Potency": "inactive"},
      {"smiles": "COCCn1c(=O)c2c(nc3n2CC(C)CN3CCc2ccccc2)n(C)c1=O", "note": "(centres undefined)", "Potency": "inactive"},
      {"smiles": "CNc1nc(NCc2ccc(C)cc2C)c2sccc2n1", "Potency": "inconclusive: 44.7 µM [inhibitor, partial curve, poor fit]"},
      {"smiles": "O=S(=O)(c1ccc2c(c1)OCCO2)N1CCN(c2ncnc3sccc23)CC1", "Potency": "inactive"},
      {"smiles": "O=C(O)c1ccc(Cn2c(=S)[nH]c3cc(Cl)ccc3c2=O)cc1", "Potency": "inconclusive: 44.7 µM [inhibitor, partial curve, poor fit]"},
      {"smiles": "Cc1ccc(NCCC(=O)c2cccs2)cc1Cl", "Potency": "inactive"},
      {"smiles": "C=CCOc1ccccc1/C=c1\\sc2nc(-c3oc4ccccc4c3C)nn2c1=O", "Potency": "inconclusive: 44.7 µM [inhibitor, partial curve]"},
      {"smiles": "CC(=O)c1ccc2c3c(cccc13)C(=O)N(CCc1ccccc1)C2=O", "Potency": "inconclusive: 50.1 µM [inhibitor, partial curve, poor fit]"},
      {"smiles": "CC1=C[C@@H](CNC(=O)CC2(CC(=O)O)CCCC2)[C@H](C(C)C)C[C@H]1Cc1nc2c(C)cccc2[nH]1", "Potency": "inconclusive: 11.2 µM [inhibitor, full curve]"},
      {"smiles": "Clc1cccc(Cl)c1OCCOCCNCc1ccccc1", "Potency": "inconclusive: 2.24 µM [inhibitor, full curve]"},
      {"smiles": "COc1cc(/C=C(\\C#N)C(N)=O)cc(CSc2nc3ccccc3s2)c1O", "Potency": "inconclusive: 28.2 µM [inhibitor, partial curve, poor fit] and inconclusive: 39.8 µM [inhibitor, partial curve, poor fit]"},
      {"smiles": "CC(C)NC(=O)c1c(-c2ccc(F)cc2)noc1[C@H](C)O", "Potency": "inconclusive: 11.2 µM [inhibitor, full curve]"},
      {"smiles": "O=C(Nc1ccc(F)cc1)c1ccc2c(c1)OCCN(c1ccccc1)C2", "Potency": "inactive"},
      {"smiles": "COc1ccc(C)cc1C(=O)CCC(=O)N1CCN(c2ccccc2F)CC1", "Potency": "inconclusive: 79.4 µM [inhibitor, partial curve, poor fit]"},
      {"smiles": "CCN(CC)C(=O)c1cccc(-c2csc(C(C)(O)c3ccc(OC)cc3)n2)c1", "note": "(centres undefined)", "Potency": "inactive"},
      {"smiles": "O=c1oc2ccccc2c(NC2CCCCC2)c1NS(=O)(=O)c1ccccc1", "Potency": "inconclusive: 112 µM [inhibitor, single point]"},
      {"smiles": "COC(=O)CNc1ccccc1", "Potency": "inconclusive: 5.62 µM [inhibitor, full curve, poor fit]"},
      {"smiles": "C=CCn1c(SCCOc2ccc(OC)cc2)nnc1C(C)NC(=O)c1ccc(OC)cc1", "note": "(centres undefined)", "Potency": "inactive"},
      {"smiles": "CCOc1ccc(-c2cc(N)n(S(=O)(=O)c3ccc(OC)cc3)n2)cc1", "Potency": "inactive"},
      {"smiles": "Cc1ccc(O)c(C(=O)OCC(=O)Nc2cccc(N3CCCC3=O)c2)c1", "Potency": "inconclusive: 44.7 µM [inhibitor, partial curve, poor fit]"},
      {"smiles": "COc1ccc(CN(CC2CCC(C(=O)O)CC2)C(=S)Nc2cc(C)cc(C)c2)cc1", "note": "(centres undefined)", "Potency": "inconclusive: 56.2 µM [inhibitor, partial curve, poor fit]"},
      {"smiles": "O=C(c1cc2cc([N+](=O)[O-])ccc2oc1=O)n1cccn1", "Potency": "inconclusive: 70.8 µM [inhibitor, partial curve, poor fit]"},
      {"smiles": "Nc1ccc(/C=C/C(=O)c2cccs2)cc1", "Potency": "inconclusive: 79.4 µM [inhibitor, partial curve, poor fit]"},
      {"smiles": "Cc1ccc(Cl)cc1NC(=O)Cn1cccc1-c1nc(-c2ccc(F)cc2)no1", "Potency": "inconclusive: 22.4 µM [inhibitor, full curve, poor fit]"},
      {"smiles": "CC(=O)NCCC(Cc1ccccc1)c1ccco1", "note": "(centres undefined)", "Potency": "inconclusive: 39.8 µM [inhibitor, single point]"},
      {"smiles": "C[C@@H]1C[C@@H](CC(=O)NCC2Cc3cccc(-c4ccncc4)c3O2)NC(=S)N1", "note": "(some centres undefined)", "Potency": "inconclusive: 79.4 µM [inhibitor, partial curve, poor fit]"},
      {"smiles": "COc1ccc(C(=O)Nc2oc3c(C)cccc3c(=O)c2-c2ccccc2)cc1", "Potency": "inactive"},
      {"smiles": "CCCc1noc(-c2ccn3c(CNC(=O)c4ccc(C)c(F)c4)nnc3c2)n1", "Potency": "active: 50.1 µM"},
      {"smiles": "COc1cccc(CNC(=O)[C@@H]2C[C@@H](O)CN2C2CCN(C(=O)c3ccccc3OC)CC2)c1", "Potency": "inactive"},
      {"smiles": "O=C(Nc1ccon1)C1CCN(S(=O)(=O)c2cccs2)CC1", "Potency": "inactive"},
      {"smiles": "CSc1ccc(/C=C2\\C(=O)Oc3ccccc32)cc1", "Potency": "active: 31.6 µM"},
      {"smiles": "COc1cc(C#N)ccc1OCC(=O)Nc1ccc(C)c(S(=O)(=O)N2CCOCC2)c1", "Potency": "inactive"},
      {"smiles": "OC(c1ccccc1)c1nc(-c2cc3ccccc3o2)cs1", "note": "(centres undefined)", "Potency": "inconclusive: 44.7 µM [inhibitor, partial curve, poor fit]"},
      {"smiles": "CC1(C)CC(=O)c2cc(C(=O)NCc3ccco3)c(=O)n(-c3ccccc3)c2C1", "Potency": "inactive"},
      {"smiles": "COc1cccc(C(=O)N2CCC(N3C[C@H](O)C[C@H]3C(=O)NCc3cc(F)ccc3F)CC2)c1", "Potency": "inactive"},
      {"smiles": "COC(=O)CC(N)c1cccc(C)c1C", "note": "(centres undefined)", "Potency": "inactive"},
      {"smiles": "CSCC[C@H](NC(=O)c1ccc(Cl)c([N+](=O)[O-])c1)c1nc2ccccc2[nH]1", "Potency": "inconclusive: 39.8 µM [inhibitor, partial curve, poor fit]"},
      {"smiles": "CCN(CC)C(=O)c1ncn2c1C(=O)N[C@H](C)C2", "Potency": "inconclusive: 0.251 µM [inhibitor, full curve, poor fit]"},
      {"smiles": "Cc1ccc(Cn2c(SCC(=O)NC(C)(C)C)nc3c(sc4ncccc43)c2=O)cc1", "Potency": "inconclusive: 56.2 µM [inhibitor, partial curve, poor fit]"},
      {"smiles": "Cc1cccc(C2(c3cccc(C)c3)CC2C(=O)Nc2ccc([N+](=O)[O-])cc2O)c1", "note": "(centres undefined)", "Potency": "inconclusive: 31.6 µM [inhibitor, partial curve]"},
      {"smiles": "O=C(NNC(=O)C1CCCCC1)c1ccc(F)cc1", "Potency": "inconclusive: 100 µM [inhibitor, single point]"},
      {"smiles": "COC(=O)C1CN(Cc2cn(CCOC(C)=O)nn2)CCS(=O)(=O)N1Cc1ccc(OC)cc1", "note": "(centres undefined)", "Potency": "inconclusive: 28.2 µM [inhibitor, partial curve, poor fit]"},
      {"smiles": "Cc1ccccc1CN(C)C[C@H]1OCc2cnnn2CCCC(=O)N([C@@H](C)CO)C[C@@H]1C", "Potency": "inconclusive: 89.1 µM [inhibitor, partial curve, poor fit]"},
      {"smiles": "CCN1/C(=C/C=C/c2sc3ccccc3[n+]2CC)Sc2ccccc21", "activity change, negative = inhibition": "inactive: -38.9% [at 12.5 µM]"},
      {"smiles": "Cc1ccc(C2=NNC(c3ccc(Cl)cc3)=Nc3ccccc32)o1", "Potency": "inactive"},
      {"smiles": "COc1ccc(CN2CCN(c3ccccn3)CC2)c(OC)c1", "Potency": "inconclusive: 0.501 µM [inhibitor, full curve, poor fit]"},
      {"smiles": "Cc1ccc(C2N=C(Nc3nc4ccccc4o3)NC3=C2C(=O)CC(C)(C)C3)cc1", "note": "(centres undefined)", "Potency": "inactive"},
      {"smiles": "CN1C(=O)CS(=O)(=O)C12CCN(C(=O)c1ccc3c(c1)OCO3)CC2", "Potency": "inactive"},
      {"smiles": "N#CC1=C2Sc3ccccc3N2CCCC1=O", "Potency": "inactive"},
      {"smiles": "COc1ccc(CNC(C)C(=O)Nc2ccc3ccccc3c2)cc1OC", "note": "(centres undefined)", "Potency": "inactive"},
      {"smiles": "COc1ccc(Cl)cc1NC(=O)CSC1=Nc2ccccc2C2=NC(CC(=O)NCc3cccs3)C(=O)N12", "note": "(centres undefined)", "Potency": "inconclusive: 141 µM [inhibitor, single point]"},
      {"smiles": "COc1ccccc1-n1nnnc1SCC(=O)Nc1oc(C)c2c(C)n[nH]c(=O)c12", "Potency": "inconclusive: 35.5 µM [inhibitor, partial curve, poor fit]"},
      {"smiles": "CC(Sc1nc2ccccc2c(=O)n1CCCO)c1nnc(-c2ccccc2)o1", "note": "(centres undefined)", "Potency": "inactive"},
      {"smiles": "O=C(CC1=CCCCC1)N1CCC(C2CCNC2)CC1", "note": "(centres undefined)", "Potency": "active: 39.8 µM"}
    ]}
  ]
}
